Reference: PMC5909342 (Chemical Science, 2018)
HELM strings list residues between dots; [ac] is acetyl, [am] amide, other brackets name non-standard units.

Assay: general procedure: Fmoc solid-phase peptide synthesis; TCP resin (2-chlorotrityl chloride polystyrene, 1.3 mmol/g); DIC/HOBt
Details: whole synthesis, on resin loading, final cyclic peptide, scale of the general procedure 250 mg (0.14-0.25 mmol)

Substance	isolated yield [%]
PEPTIDE1{R.[Gly-t].D.[dF].V}$PEPTIDE1,PEPTIDE1,1:R1-5:R2$$$V2.0	12
PEPTIDE1{R.G.D.[dF].V}$PEPTIDE1,PEPTIDE1,1:R1-5:R2$$$V2.0	16
cyclo(–D-Ala–Ala4–)	16
PEPTIDE1{R.G.[Asp-t].[dF].V}$PEPTIDE1,PEPTIDE1,1:R1-5:R2$$$V2.0	14
PEPTIDE1{R.G.D.[dPhe-t].V}$PEPTIDE1,PEPTIDE1,1:R1-5:R2$$$V2.0	15
PEPTIDE1{R.G.D.[Phe-t].V}$PEPTIDE1,PEPTIDE1,1:R1-5:R2$$$V2.0	14
PEPTIDE1{R.G.D.F.V}$PEPTIDE1,PEPTIDE1,1:R1-5:R2$$$V2.0	15
PEPTIDE1{[Arg-t].G.D.[dF].V}$PEPTIDE1,PEPTIDE1,1:R1-5:R2$$$V2.0	15
